These are yes or no findings as the source states them, for the method shown. Binding seen in cells or lysates may run through a third protein. Some results given as binding are weak or reduced against the parent protein; the word gives no strength. Where a sequence is shown, tags or fusion partners need not be part of it.
Molecular target: Flag-RBM24 (RNA binding motif protein 24) (human) (UniProt Q9BX46)
Assay: co-IP; 293T cells co-transfected with pFlag-RBM24 and pHA-RBM24; lysates precipitated with anti-Flag, anti-HA or control IgG; blots with anti-HA and anti-[…]

B1: Flag-RBM24 (RNA binding motif protein 24) (protein, UniProt Q9BX46-1 1-236)
chain: MHTTQKDTTYTKIFVGGLPYHTTDASLRKYFEVFGEIEEAVVITDRQTGKSRGYGFVTMADRAAAERACKDPNPIIDGRKANVNLAYLGAKPRIMQPGFAFGVQQLHPALIQRPFGIPAHYVYPQAFVQPGVVIPHVQPTAAAASTTPYIDYTGAAYAQYSAAAAAAAAAAAYDQYPYAASPAAAGYVTAGGYGYAVQQPITAAAPGTAAAAAAAAAAAAAFGQYQPQQLQTDRMQ
For B1, the binding was “binds”.
